Some of the results follow.
Compound: Cc1cc(ccc1-c1ccccc1)C(=O)N1CCCN(CC1)C(=O)CCl [compound 10]
Experiment: probe-labelled cysteine peptide fold change vs DMSO (competition) (log2 fold change); higher = less target engagement (more negative = stronger competition)
Details: THP-1, incubation time: 4 h
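Also: competitive profiling in live THP-1 cells: cysteine peptides tagged with an iodoacetamide desthiobiotin (IA-DTB) probe, intensity after compound treatment relative to DMSO-treated cells.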

The chains behind the UniProt entries cited, without tags or fusion partners. Where a name states a change or a piece, a line headed by the entry shows the natural chain unless it says otherwise.
UniProt P42575: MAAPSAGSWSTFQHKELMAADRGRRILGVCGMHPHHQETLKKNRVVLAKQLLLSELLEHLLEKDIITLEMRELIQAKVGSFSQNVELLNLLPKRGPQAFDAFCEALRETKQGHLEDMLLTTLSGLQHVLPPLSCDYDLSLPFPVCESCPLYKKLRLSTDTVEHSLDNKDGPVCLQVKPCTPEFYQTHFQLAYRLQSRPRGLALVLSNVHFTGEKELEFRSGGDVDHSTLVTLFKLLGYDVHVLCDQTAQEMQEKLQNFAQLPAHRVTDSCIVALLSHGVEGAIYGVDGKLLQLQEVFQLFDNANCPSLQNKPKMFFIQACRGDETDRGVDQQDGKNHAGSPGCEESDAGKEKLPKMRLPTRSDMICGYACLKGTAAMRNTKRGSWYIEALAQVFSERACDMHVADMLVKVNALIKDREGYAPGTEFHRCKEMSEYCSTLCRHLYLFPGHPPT
UniProt P50991: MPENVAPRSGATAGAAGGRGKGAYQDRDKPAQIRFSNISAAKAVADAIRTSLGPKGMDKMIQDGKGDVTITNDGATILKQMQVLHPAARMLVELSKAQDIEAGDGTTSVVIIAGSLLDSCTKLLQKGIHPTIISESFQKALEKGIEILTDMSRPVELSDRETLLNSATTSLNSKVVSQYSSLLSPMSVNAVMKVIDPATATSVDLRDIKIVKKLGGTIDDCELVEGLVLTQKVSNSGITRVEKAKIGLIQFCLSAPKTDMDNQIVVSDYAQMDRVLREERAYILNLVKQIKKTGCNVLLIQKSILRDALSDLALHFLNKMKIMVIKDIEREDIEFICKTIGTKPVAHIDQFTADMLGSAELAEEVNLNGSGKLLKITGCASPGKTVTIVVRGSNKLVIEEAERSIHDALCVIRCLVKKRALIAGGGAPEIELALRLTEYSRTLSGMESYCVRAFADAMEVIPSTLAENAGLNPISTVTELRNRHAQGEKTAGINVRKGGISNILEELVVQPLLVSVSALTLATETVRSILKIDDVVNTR
UniProt P42574: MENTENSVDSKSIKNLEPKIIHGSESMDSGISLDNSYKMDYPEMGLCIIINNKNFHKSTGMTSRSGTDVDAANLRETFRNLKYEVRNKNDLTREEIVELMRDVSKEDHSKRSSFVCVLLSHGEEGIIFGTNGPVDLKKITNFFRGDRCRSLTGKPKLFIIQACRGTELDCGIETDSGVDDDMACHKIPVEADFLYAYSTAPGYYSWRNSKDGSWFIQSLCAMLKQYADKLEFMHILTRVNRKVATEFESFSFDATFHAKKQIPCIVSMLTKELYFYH
UniProt Q96LW7: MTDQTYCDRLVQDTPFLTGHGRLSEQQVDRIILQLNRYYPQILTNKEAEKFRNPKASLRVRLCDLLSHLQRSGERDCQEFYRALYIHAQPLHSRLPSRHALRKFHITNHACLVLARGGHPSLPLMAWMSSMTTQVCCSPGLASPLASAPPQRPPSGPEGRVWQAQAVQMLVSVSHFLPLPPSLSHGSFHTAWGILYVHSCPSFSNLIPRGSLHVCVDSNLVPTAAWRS
UniProt P49589: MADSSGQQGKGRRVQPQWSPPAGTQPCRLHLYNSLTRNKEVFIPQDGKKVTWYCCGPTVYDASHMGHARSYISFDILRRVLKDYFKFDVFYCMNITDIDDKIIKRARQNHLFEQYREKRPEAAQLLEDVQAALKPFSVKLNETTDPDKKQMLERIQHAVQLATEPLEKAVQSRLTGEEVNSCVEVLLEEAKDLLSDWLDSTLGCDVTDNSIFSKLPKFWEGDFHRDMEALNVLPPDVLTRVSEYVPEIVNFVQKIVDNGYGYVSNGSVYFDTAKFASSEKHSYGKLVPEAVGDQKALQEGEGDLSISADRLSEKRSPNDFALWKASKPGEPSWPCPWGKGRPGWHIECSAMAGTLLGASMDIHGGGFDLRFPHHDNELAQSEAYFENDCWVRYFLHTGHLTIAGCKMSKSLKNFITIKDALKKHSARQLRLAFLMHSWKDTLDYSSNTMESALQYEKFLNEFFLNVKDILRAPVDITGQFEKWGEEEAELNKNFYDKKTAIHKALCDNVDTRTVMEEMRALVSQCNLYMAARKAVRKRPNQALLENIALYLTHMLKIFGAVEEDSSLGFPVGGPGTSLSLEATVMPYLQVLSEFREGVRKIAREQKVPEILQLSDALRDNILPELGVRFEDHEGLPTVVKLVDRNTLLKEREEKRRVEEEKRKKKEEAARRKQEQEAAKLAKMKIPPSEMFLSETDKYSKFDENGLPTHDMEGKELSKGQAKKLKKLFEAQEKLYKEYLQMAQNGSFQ
UniProt Q86X55: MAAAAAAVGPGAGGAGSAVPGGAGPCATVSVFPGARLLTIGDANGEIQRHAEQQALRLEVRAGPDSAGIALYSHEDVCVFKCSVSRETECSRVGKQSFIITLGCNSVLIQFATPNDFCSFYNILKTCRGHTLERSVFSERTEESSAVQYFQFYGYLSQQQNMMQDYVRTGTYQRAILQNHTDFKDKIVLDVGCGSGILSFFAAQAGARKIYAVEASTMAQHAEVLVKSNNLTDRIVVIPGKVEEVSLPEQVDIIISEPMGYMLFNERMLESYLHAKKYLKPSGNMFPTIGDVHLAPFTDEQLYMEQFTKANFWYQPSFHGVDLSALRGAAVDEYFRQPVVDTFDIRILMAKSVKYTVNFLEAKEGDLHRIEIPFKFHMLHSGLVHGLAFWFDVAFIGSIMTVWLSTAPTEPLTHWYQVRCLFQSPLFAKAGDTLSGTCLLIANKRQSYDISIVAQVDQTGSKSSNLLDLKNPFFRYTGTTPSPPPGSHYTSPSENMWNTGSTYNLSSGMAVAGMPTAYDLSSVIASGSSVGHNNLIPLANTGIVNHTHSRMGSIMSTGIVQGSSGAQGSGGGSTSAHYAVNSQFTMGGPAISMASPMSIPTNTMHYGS
UniProt Q14790: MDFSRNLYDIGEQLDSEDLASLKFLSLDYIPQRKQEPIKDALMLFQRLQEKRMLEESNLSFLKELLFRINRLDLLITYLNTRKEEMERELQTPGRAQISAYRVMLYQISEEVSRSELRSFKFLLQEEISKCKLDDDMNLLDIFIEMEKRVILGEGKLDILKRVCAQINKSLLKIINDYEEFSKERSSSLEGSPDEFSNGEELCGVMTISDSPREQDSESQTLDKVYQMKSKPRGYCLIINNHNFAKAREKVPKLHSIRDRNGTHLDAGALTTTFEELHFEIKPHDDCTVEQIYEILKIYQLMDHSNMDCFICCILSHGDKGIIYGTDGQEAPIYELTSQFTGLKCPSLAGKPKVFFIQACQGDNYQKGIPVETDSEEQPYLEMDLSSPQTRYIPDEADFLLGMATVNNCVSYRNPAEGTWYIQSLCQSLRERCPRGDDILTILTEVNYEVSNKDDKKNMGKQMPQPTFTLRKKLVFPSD
UniProt Q01518, whole entry, looked up: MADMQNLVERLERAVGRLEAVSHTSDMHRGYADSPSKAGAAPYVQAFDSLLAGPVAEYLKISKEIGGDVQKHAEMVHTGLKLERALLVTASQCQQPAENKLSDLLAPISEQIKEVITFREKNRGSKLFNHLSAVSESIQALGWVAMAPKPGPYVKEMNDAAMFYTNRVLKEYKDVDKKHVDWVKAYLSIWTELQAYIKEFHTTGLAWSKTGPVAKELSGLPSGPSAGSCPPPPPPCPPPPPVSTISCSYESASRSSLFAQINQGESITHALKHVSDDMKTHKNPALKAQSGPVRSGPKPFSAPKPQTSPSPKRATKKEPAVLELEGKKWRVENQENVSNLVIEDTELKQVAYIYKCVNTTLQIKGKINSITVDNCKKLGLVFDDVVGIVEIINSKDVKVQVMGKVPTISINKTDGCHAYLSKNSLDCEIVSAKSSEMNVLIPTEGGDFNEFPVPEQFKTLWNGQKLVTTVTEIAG
UniProt Q75N03: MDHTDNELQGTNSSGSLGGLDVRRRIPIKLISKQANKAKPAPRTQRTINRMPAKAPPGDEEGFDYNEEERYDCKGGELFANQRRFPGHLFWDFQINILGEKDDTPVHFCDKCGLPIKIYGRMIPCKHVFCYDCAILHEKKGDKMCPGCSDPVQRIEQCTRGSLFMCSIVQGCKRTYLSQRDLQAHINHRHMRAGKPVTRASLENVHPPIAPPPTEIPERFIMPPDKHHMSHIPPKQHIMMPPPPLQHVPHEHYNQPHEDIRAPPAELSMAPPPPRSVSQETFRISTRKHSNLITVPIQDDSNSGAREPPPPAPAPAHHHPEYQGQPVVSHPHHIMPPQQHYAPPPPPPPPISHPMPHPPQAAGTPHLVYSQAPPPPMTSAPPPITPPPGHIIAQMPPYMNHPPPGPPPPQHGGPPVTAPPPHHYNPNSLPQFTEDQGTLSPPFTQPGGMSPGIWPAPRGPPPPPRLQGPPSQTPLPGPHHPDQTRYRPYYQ
UniProt Q5T0F9: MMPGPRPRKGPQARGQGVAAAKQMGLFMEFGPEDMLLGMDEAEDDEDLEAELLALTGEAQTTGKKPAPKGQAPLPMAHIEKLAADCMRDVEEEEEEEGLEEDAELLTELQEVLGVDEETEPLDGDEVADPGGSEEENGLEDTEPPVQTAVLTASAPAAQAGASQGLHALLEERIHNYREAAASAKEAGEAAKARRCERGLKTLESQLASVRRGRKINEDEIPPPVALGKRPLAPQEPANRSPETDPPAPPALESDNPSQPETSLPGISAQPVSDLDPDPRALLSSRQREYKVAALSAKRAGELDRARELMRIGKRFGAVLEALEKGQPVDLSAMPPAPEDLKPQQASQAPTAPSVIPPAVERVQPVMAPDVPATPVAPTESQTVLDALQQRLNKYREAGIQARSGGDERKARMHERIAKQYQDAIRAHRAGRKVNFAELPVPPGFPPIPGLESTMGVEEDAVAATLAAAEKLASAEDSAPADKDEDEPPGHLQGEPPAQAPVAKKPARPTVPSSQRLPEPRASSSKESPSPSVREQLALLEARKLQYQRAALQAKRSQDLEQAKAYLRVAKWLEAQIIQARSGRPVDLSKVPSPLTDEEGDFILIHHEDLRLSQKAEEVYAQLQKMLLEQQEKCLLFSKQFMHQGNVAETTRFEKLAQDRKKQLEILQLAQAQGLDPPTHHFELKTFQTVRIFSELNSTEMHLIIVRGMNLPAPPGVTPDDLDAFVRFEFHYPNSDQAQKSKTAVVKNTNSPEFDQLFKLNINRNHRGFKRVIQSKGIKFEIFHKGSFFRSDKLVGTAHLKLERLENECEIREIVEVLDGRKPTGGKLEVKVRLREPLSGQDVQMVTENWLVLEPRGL
UniProt P04040: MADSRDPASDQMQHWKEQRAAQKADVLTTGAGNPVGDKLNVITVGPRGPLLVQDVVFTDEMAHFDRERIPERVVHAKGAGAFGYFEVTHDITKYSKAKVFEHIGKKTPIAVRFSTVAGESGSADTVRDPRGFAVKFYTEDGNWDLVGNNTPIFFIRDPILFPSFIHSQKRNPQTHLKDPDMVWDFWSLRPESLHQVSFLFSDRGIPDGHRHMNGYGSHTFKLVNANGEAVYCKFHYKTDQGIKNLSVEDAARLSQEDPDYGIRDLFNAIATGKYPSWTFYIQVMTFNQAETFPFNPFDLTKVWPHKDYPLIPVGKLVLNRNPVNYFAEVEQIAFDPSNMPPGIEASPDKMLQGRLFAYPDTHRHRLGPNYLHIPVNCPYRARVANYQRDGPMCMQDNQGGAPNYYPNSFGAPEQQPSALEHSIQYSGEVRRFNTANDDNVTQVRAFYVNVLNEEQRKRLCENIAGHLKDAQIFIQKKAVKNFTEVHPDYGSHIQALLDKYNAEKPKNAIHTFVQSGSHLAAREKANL
UniProt P51946: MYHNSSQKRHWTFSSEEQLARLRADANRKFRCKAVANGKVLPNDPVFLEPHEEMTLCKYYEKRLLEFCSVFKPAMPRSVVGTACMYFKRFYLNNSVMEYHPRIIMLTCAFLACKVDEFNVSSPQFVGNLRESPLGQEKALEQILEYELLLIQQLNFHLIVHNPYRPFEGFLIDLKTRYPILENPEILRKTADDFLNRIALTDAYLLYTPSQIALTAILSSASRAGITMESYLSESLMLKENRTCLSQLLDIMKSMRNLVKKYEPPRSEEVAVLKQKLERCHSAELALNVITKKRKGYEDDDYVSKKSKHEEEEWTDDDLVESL
UniProt P49662: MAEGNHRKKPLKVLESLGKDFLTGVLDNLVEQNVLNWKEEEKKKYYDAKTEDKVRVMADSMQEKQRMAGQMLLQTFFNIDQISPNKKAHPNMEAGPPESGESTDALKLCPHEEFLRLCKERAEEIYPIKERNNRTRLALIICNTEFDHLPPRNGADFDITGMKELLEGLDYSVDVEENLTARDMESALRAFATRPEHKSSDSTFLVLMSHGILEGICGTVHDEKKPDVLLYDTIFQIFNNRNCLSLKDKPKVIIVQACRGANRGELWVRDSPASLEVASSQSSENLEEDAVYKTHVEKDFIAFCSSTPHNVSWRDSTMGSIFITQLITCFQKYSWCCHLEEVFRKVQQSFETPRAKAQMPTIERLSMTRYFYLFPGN
UniProt Q9Y2V2: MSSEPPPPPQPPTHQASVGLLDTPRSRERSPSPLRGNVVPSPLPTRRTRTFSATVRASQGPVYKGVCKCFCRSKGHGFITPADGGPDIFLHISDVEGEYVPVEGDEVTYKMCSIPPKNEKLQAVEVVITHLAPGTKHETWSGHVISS

Target | probe-labelled cysteine peptide fold change (10 µM) | probe-labelled cysteine peptide fold change (50 µM)
CAPN2_P17655_640_MPCQLHQVIVAR (UniProt P17655) | 0.0245 | -0.0914
CASP2_P42575_305_LLQLQEVFQLFDNANCPSLQNKPK (UniProt P42575) | -0.124 | -0.293
CCT2_P78371_412_TVYGGGCSEMLMAHAVTQLANR (UniProt P78371) | 0.0056 | -0.00435
CAPNS1_P04632_190_SGTICSSELPGAFEAAGFHLNEHLYNMIIR (UniProt P04632) | 0.0642 | 0.226
CARD9_Q9H257_402_ADELQLQVFQCEAQLLAVEGR (UniProt Q9H257) | 0.18 | 0.639
CAPN2_P17655_82_RPTEICADPQFIIGGATR (UniProt P17655) | -0.162 | -0.203
CCT4_P50991_295_TGCNVLLIQK (UniProt P50991) | -0.0149 | 0.222
CCPG1_Q9ULG6_672_ELDTFCHWNELDQFINK (UniProt Q9ULG6) | -0.0179 | 0.518
CASP3_P42574_184_GTELDCGIETDSGVDDDMACHK (UniProt P42574) | 0.00328 | -0.508
CARD19_Q96LW7_63_LCDLLSHLQR (UniProt Q96LW7) | 0.0672 | -0.0424
CCNK_O75909_23_ENSSPSVTSANLDHTKPCWYWDK (UniProt O75909) | -0.0903 | -0.254
CCDC88B_A6NC98_238_EPLCLRPEAPSR (UniProt A6NC98) | -0.221 | -0.219
CCAR2_Q8N163_754_VVTQNICQYR (UniProt Q8N163) | -0.212 | -0.0838
CCNDBP1_O95273_89_FCEQVHAAIK (UniProt O95273) | -0.0837 | 0.385
CASP2_P42575_179_DGPVCLQVKPCTPEFYQTHFQLAYR (UniProt P42575) | -0.458 | -0.354
CAP2_P40123_378_VNSIIIDNCKK (UniProt P40123) | 0.189 | 0.136
CCND3_P30281_6_MELLCCEGTR (UniProt P30281) | -0.184 | -0.26
CAST_P20810_381_SESELIDELSEDFDRSECK (UniProt P20810) | -0.197 | -0.0431
CAPNS1_P04632_232_RYSDESGNMDFDNFISCLVR (UniProt P04632) | 0.00384 | 0.171
CCDC22_O60826_441_KLQDCR (UniProt O60826) | -0.15 | -0.337
CAPZA2_P47755_141_EHYPNGVCTVYGK (UniProt P47755) | 0.0707 | -0.113

Target | probe-labelled cysteine peptide fold change (10 µM) | probe-labelled cysteine peptide fold change (50 µM)
CARS_P49589_55_VTWYCCGPTVYDASHMGHAR (UniProt P49589) | 0.0441 | -0.0376
CARM1_Q86X55_193_IVLDVGCGSGILSFFAAQAGAR (UniProt Q86X55) | 0.395 | 0.172
CCDC106_Q9BWC9_184_DADGVLCR (UniProt Q9BWC9) | -0.208 | -0.715
CCDC25_Q86WR0_71_EVLMDCAHLVK (UniProt Q86WR0) | 0.138 | 0.173
CCAR2_Q8N163_515_RNAETPEATTQQETDTDLPEAPPPPLEPAVIARPGCVNLSLHGIVEDR (UniProt Q8N163) | 0.107 | -0.245
CASP8_Q14790_309+313_IYQLMDHSNMDCFICCILSHGDK (UniProt Q14790) | 0.152 | -0.000519
CCNA2_P20248_390_TGYTLESLKPCLMDLHQTYLK (UniProt P20248) | -0.0469 | 0.0777
CAP1_Q01518_93_ALLVTASQCQQPAENKLSDLLAPISEQIK (UniProt Q01518) | 0.0176 | 0.108
CASKIN2_Q8WXE0_185_VAQLLLNSHLCVALLEGEAKDPCDPNYTTPLHLAAK (UniProt Q8WXE0) | -0.0127 | -1.02
CBLL1_Q75N03_133_HVFCYDCAILHEK (UniProt Q75N03) | 0.137 | 0.0843
CCT2_P78371_289_HGINCFINR (UniProt P78371) | 0.0675 | 0.0153
CCT4_P50991_337_DIEREDIEFICK (UniProt P50991) | -0.0766 | 0.195
CARS_P49589_182_LTGEEVNSCVEVLLEEAK (UniProt P49589) | -0.181 | -0.461
CASP1_P29466_397_CFYLFPGH (UniProt P29466) | 0.0684 | -0.176
CCT4_P50991_450_TLSGMESYCVR (UniProt P50991) | 0.158 | -0.0266
CCT4_P50991_252_IGLIQFCLSAPK (UniProt P50991) | -0.00184 | -0.0885
CC2D1B_Q5T0F9_809_LENECEIREIVEVLDGR (UniProt Q5T0F9) | -0.139 | -0.00926
CBFA2T3_O75081_405_HLNNLLNCIMDMVEK (UniProt O75081) | -0.0172 | 0.0849
CASP3_P42574_116_RSSFVCVLLSHGEEGIIFGTNGPVDLKK (UniProt P42574) | -0.0144 | -0.0837
CCL5_P13501_57_CSNPAVVFVTR (UniProt P13501) | -0.208 | -0.165
CCNT2_O60583_26_CGVEADK (UniProt O60583) | -0.0575 | -0.0268

Target | probe-labelled cysteine peptide fold change (10 µM) | probe-labelled cysteine peptide fold change (50 µM)
CCDC86_Q9H6F5_127_CSQDQGVLASELAQNK (UniProt Q9H6F5) | 0.123 | -0.256
CAT_P04040_460_RLCENIAGHLK (UniProt P04040) | 0.0989 | 0.021
CAPN15_O75808_9_ATVGEWSCVR (UniProt O75808) | 0.282 | 0.243
CASP2_P42575_320_MFFIQACR (UniProt P42575) | -0.311 | -0.355
CCAR1_Q8IX12_744_SGKFDCSIMSLSVLLDYR (UniProt Q8IX12) | 0.107 | 0.256
CARM1_Q86X55_438_AGDTLSGTCLLIANKR (UniProt Q86X55) | 0.0227 | 0.0261
CBFA2T2_O43439_357_HLDHALNCIMEMVEK (UniProt O43439) | 0.0922 | -0.14
CARD19_Q96LW7_7_TDQTYCDR (UniProt Q96LW7) | 0.414 | 0.465
CASP7_P55210_186_LFFIQACR (UniProt P55210) | -0.135 | -0.227
CARNMT1_Q8N4J0_115_CIDHNQEILLTIVNDCIHMFENK (UniProt Q8N4J0) | -0.0826 | 0.0874
CCT4_P50991_295_KTGCNVLLIQK (UniProt P50991) | -0.241 | 0.0584
CCDC97_Q96F63_122_TGLREEHLACFGHVR (UniProt Q96F63) | 0.345 | 0.477
CASP10_Q92851_350_CNPAHADGDCFVFCILTHGR (UniProt Q92851) | 0.0154 | 0.0213
CARD9_Q9H257_329_EMFELQCLALRK (UniProt Q9H257) | -0.28 | -0.618
CCT5_P48643_429+440_VVYGGGAAEISCALAVSQEADKCPTLEQYAMR (UniProt P48643) | -0.277 | -0.342
CAPG_P40121_77_DEQGACAVLAVHLNTLLGER (UniProt P40121) | 0.242 | 0.312
CCNH_P51946_244_TCLSQLLDIMK (UniProt P51946) | 0.153 | -0.0332
CAT_P04040_460_LCENIAGHLK (UniProt P04040) | 0.0902 | -0.0858
CASP4_P49662_337_YSWCCHLEEVFRK (UniProt P49662) | -0.1 | -0.0368
CARD6_Q9BX69_872_AVGKPWPQQACTR (UniProt Q9BX69) | -0.34 | -0.372
CC2D1B_Q5T0F9_634_CLLFSK (UniProt Q5T0F9) | -0.14 | -0.0501

Taken from the listing for reference:
Target | probe-labelled cysteine peptide fold change (10 µM) | probe-labelled cysteine peptide fold change (50 µM)
CAP1_Q01518_93_ALLVTASQCQQPAENKLSDLLAPISEQIK (UniProt Q01518) | 0.0176 | 0.108
CASKIN2_Q8WXE0_185_VAQLLLNSHLCVALLEGEAKDPCDPNYTTPLHLAAK (UniProt Q8WXE0) | -0.0127 | -1.02
CBLL1_Q75N03_133_HVFCYDCAILHEK (UniProt Q75N03) | 0.137 | 0.0843
CCT2_P78371_289_HGINCFINR (UniProt P78371) | 0.0675 | 0.0153
CCT4_P50991_337_DIEREDIEFICK (UniProt P50991) | -0.0766 | 0.195

The results go on.

Target | probe-labelled cysteine peptide fold change (10 µM) | probe-labelled cysteine peptide fold change (50 µM)
CCDC115_Q96NT0_68_SVGPLQYASHMEPQVCLHASEAQEGLQK (UniProt Q96NT0) | -0.0291 | 0.0895
CBX1_P83916_156_CPQVVISFYEER (UniProt P83916) | 0.121 | -0.00934
CAPZB_P47756_62_DYLLCDYNRDGDSYR (UniProt P47756) | -0.437 | -0.768
CCT4_P50991_221_LGGTIDDCELVEGLVLTQK (UniProt P50991) | -0.108 | 0.263
CAST_P20810-2_228_ELLAKPIGPDDAIDALSSDFTCGSPTAAGK (UniProt P20810) | 0.0534 | -0.125
CARHSP1_Q9Y2V2_112_MCSIPPK (UniProt Q9Y2V2) | -0.0121 | 0.0208
CAPN1_P07384_417_IRLDETDDPDDYGDRESGCSFVLALMQK (UniProt P07384) | -0.0999 | -0.171
CASP6_P55212_113+116_IHEVSTVSHADADCFVCVFLSHGEGNHIYAYDAK (UniProt P55212) | 0.169 | -0.0859
CCNL2_Q96S94_190_ELGFCVHVK (UniProt Q96S94) | -0.0835 | 0.482
CAPN7_Q9Y6W3_329_DGEPEYNPCGK (UniProt Q9Y6W3) | -0.0811 | -0.247
CBX8_Q9HC52_142_NMGLSPPASSTSTSSTCR (UniProt Q9HC52) | -0.187 | -0.373
CCDC186_Q7Z3E2_80_IEAQENYIPDHGGGEDSCAK (UniProt Q7Z3E2) | -0.135 | -0.0852
CBX5_P45973_133_IIGATDSCGDLMFLMK (UniProt P45973) | -0.0852 | 0.00313
CASP8_Q14790_409_YIPDEADFLLGMATVNNCVSYR (UniProt Q14790) | 0.0909 | -0.301
CBLL1_Q75N03_109_DDTPVHFCDK (UniProt Q75N03) | 0.191 | 0.628
CCT3_P49368_455_TLIQNCGASTIR (UniProt P49368) | -0.0189 | 0.0901
CCNH_P51946_280_CHSAELALNVITK (UniProt P51946) | -0.0322 | 0.124
CARS_P49589_27_VQPQWSPPAGTQPCR (UniProt P49589) | -0.136 | -0.695
CCDC117_Q8IWD4_81_REEEEDDDCPVR (UniProt Q8IWD4) | -0.0553 | -0.115
CASP4_P49662_142_LALIICNTEFDHLPPR (UniProt P49662) | 0.0266 | -0.0433

Source: the supplement of paper PMC12067093, “Discovery and optimisation of a covalent ligand for TRIM25 and its application to targeted protein ubiquitination” (Chemical Science, 2025)
